Our source for the inhibition values is PubChem BioAssay AID651660 (Broad Institute, 2012).

Protein sequences, listed by entry. Tags and fused reporters are not part of them. Lines headed by an entry give the natural chain unless they say otherwise; changes in a name come on top.
UniProt P43351: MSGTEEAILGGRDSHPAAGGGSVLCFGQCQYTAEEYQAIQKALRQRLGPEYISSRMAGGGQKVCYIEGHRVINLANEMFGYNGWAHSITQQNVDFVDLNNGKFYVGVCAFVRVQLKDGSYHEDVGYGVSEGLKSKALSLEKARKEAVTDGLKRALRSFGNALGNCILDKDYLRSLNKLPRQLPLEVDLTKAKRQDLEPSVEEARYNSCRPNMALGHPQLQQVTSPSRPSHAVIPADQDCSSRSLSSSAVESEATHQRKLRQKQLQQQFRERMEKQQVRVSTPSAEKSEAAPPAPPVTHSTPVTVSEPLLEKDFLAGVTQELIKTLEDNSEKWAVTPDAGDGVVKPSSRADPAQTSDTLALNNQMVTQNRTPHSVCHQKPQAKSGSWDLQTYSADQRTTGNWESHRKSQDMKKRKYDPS

The structures appear in SMILES notation. The campaign covered roughly 1,900 compounds. About 15 (0.8%) were called active.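 The calls were made as follows: active = every replicate shows at least 50% inhibition; inconclusive = mean inhibition at least 50% but some replicate below; inactive = the rest.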 The list shows a part of the results.

In the experiment the target is DNA repair protein RAD52 homolog (Homo sapiens) (UniProt P43351). Nature of the experiment: RAD52 ssDNA annealing inhibitors, primary screen, biochemical, FRET, single point (AID 651660).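 Also: 0% = median of neutral control wells and 100% = median of positive control wells.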 As to conditions: Recombinant RAD52 ssDNA annealing, FRET fluorescence, 30 min; at 18.7 µM; stronger effect = higher value.
Take `COc1ccc(CCNC(=O)C(=O)Nc2ccc3c(c2)OCO3)cc1OC`: the inhibition was inactive: -0.306%.

As to `Cn1c2ccccc2c2cc(/C=C(\NC(=O)c3ccccc3)C(=O)O)ccc21`, the inhibition was inactive: -10.8%.

As to `CNC[C@H](O)c1cccc(O)c1`, the inhibition is inactive: 7.82%.

Consider `COc1ccc2[nH]c(CN3CCN(CC(C)C)C(CCO)C3)c(C)c2c1` (stereo not drawn), for which the inhibition was inactive: -14.8%.

On to `O=C(/C=C/c1ccc(F)cc1)NC(=S)N1CCCCC1c1cccnc1` (stereo not drawn), for which the inhibition is inactive: -4.65%.

`O=C(NC1CCCCC1)c1cc2nc(-c3ccco3)cc(C(F)(F)F)n2n1`: the inhibition is inactive: -299%.

As to `Cc1c(OCC(F)(F)F)ccnc1CS(=O)c1nc2ccccc2[nH]1` (stereo not drawn), the inhibition is inactive: -14.2%.

As to `O=C(c1ccc(-c2ccccc2)c(F)c1)C1CCCN(C(=O)c2cncs2)C1` (stereo not drawn), the inhibition was inactive: -5.72%.

For `COc1ccc(C(=O)COc2ccc(F)cc2)c(O)c1`, the inhibition is inactive: -11.9%.

As to `COc1ccc2c(c1OC)C(=O)N1C2SC[C@H]1C(=O)NC1CC(C)(C)NC(C)(C)C1` (stereo partly drawn), the inhibition was inactive: -12.4%.

For the compound `CC(C)OC(=O)c1ccc(NC(=O)c2cncc(Br)c2)cc1`, the inhibition was inactive: 5.94%.

Turning to `O=C(O)COc1ccc2occ(C(=O)c3ccccc3)c2c1`, the inhibition was inactive: -10.4%.

As for `CN(C)c1ccc(Nc2c3c4c(cccc4n(C)c2=O)C(=O)c2ccccc2-3)cc1`, the inhibition is inactive: -136%.

Take `COC(=O)c1sccc1NC(=O)Nc1ccccc1F`: the inhibition was inactive: -4.3%.

On to `CCN(CC)c1ccc([C@H]2[C@@H]3CCCC[C@]3(O)CCN2CC(=O)NCc2ccco2)cc1`, for which the inhibition was inactive: -20.6%.

On to `COc1cc(-c2cccs2)cc(=O)c2c(C)oc(C)c12`, for which the inhibition is inactive: -80.9%.

Regarding `O=Cc1ccccc1Oc1ccccc1`, the inhibition is inactive: 5.83%.

`COc1cc(=O)n(C)c2ccccc12`: the inhibition is inactive: -3.21%.

On to `COc1ccc(N2C(=O)C3CCCN3C2=O)cc1` (stereo not drawn), for which the inhibition is inactive: -5.53%.

With `Cc1cc(C(=O)Nc2ccccc2C(=O)N2CCCCC2)ccc1[N+](=O)[O-]`, the inhibition is inactive: 1.77%.

In the case of `CN(Cc1ccccc1)CC(O)COc1ccc(CNCc2cccnc2)cc1` (stereo not drawn), the inhibition was inactive: 25.5%.

Consider `CCOC(=O)C1(CCCc2ccccc2)CCN(C2CCN(C(C)=O)CC2)CC1`, for which the inhibition was inactive: 7.76%.

In the case of `COc1ccc2[nH]c3c(c2c1)CCNC3C1CC=C(C)CC1` (stereo not drawn), the inhibition is inactive: -2.2%.

Consider `CN(C)CCN(Cc1cccs1)c1ccccn1`, for which the inhibition was inactive: 2.61%.

As to `CCNC(=O)C12CCC(C)(C(=O)O1)C2(C)C` (stereo not drawn), the inhibition was inactive: -8.08%.

Turning to `COc1cc2c(cc1OC)C(c1cc3ccccc3oc1=O)=NC(C)(C)C2`, the inhibition was inactive: -3.56%.

Consider `CCOc1cc2oc(=O)c3c(c2cc1Cl)CCC3`, for which the inhibition is inactive: -1.74%.

`COc1ccc2oc(-c3ccco3)cc(=O)c2c1`: the inhibition is inactive: -16.1%.

In the case of `NC(=O)N1c2ccccc2C=Cc2ccccc21`, the inhibition is inactive: -2.44%.

For the compound `COc1cc(C2NCCc3c2[nH]c2ccccc32)ccc1OC(C)C` (stereo not drawn), the inhibition is inactive: 1.55%.

Turning to `CC(C)(C)N(Cc1ccccc1)C(=O)c1ccc(Br)o1`, the inhibition was inactive: -0.336%.

In the case of `COc1ccc(CN(CCN(C)C)c2ccccn2)cc1`, the inhibition was inactive: -2.8%.

On to `CCOC(=O)C(Cc1cc(C(C)=O)ccc1OC(C)C)C(=O)OCC`, for which the inhibition was inactive: -7.77%.

For `CCCNC(C)C(=O)Nc1ccccc1C` (stereo not drawn), the inhibition is inactive: -1.36%.

Consider `CC(COc1ccccc1)N(CCCl)Cc1ccccc1` (stereo not drawn), for which the inhibition is inactive: 3.95%.

Regarding `CN(CCO)CC(O)Cn1cnc2c1c(=O)n(C)c(=O)n2C` (stereo not drawn) (tested in a mixture with another compound), the inhibition is inactive: -12.6%.

Take `CCCCC[C@H](O)/C=C/[C@@H]1[C@@H](C/C=C\CCCC(=O)O)[C@@H](O)C[C@H]1O`: the inhibition is inactive: -9.24%.

As for `Cc1nc(C(=O)Nc2ccccc2Cl)cc2c1[nH]c1ccccc12`, the inhibition was inactive: -14%.

For `O=C1NC2(Nc3ccccc31)C(=O)Nc1ccc(Br)cc12` (stereo not drawn), the inhibition was inactive: -0.104%.

Take `COc1ccc2c(c1OC)C(=O)NC(C)=C(C(=O)OC(C)(C)C)C2O` (stereo not drawn): the inhibition is inactive: -15.6%.

As for `CC(=O)NC(Cc1ccccc1)C(=O)OCC(=O)c1ccccc1` (stereo not drawn), the inhibition is inactive: -8.26%.

`COc1ccc(C(=O)/C=C/c2ccc(OC(=O)c3cc(OC)c(OC)c(OC)c3)cc2)cc1`: the inhibition is inactive: -50.8%.

Regarding `Cc1ccc2occ(C(=O)c3ccco3)c(=O)c2c1`, the inhibition was inactive: -5.74%.

As for `O=C(NC(CO)Cc1ccc([N+](=O)[O-])cc1)C(Cl)Cl` (stereo not drawn), the inhibition was inactive: -1.53%.

Regarding `COc1cccc(C2CC(=O)C3=C(C2)Nc2ccccc2N(C(=O)CCC(=O)O)C3c2ccc(F)cc2)c1` (stereo not drawn), the inhibition was inactive: -5.48%.

`CC(=O)NC(NC(=S)N1CCCCCC1)C(Cl)(Cl)Cl` (stereo not drawn): the inhibition is inactive: -5.92%.

As to `COc1ccc(-c2nc(C)c(C(C)=O)n2O)cc1OC`, the inhibition was inactive: -4.44%.

Consider `Cc1cnc(C(=O)N2CCCC(C(=O)c3ccc(Cl)cc3C)C2)cn1` (stereo not drawn), for which the inhibition is inactive: 3.18%.

As to `O=C(Cc1ccccc1)NCC(=O)OCC(=O)c1ccccc1Cl`, the inhibition was inactive: -10%.

On to `Cn1c(Oc2ccc3c(c2)OCO3)nc2c1c(=O)n(Cc1ccccc1)c(=O)n2C`, for which the inhibition is inactive: 3.48%.

For the compound `CCOc1ccc(C(=O)Nc2ccc(N3CCN(C(C)=O)CC3)cc2)cc1[N+](=O)[O-]`, the inhibition was inactive: -3.31%.

For the compound `Fc1cccc(Cc2noc(CN3CCN(c4cnccn4)CC3)n2)c1`, the inhibition was inactive: -5.8%.

Regarding `COc1ccc2c(=O)c(-c3cnn(-c4ccccc4)c3)c(C)oc2c1`, the inhibition was inactive: -8.23%.

As to `CC(C)(C)NC[C@H](O)COc1nsnc1N1CCOCC1`, the inhibition was inactive: -3.38%.

Consider `C[C@]12CCC(=O)C=C1CC[C@@H]1[C@@H]2[C@@H](O)C[C@@]2(C)[C@H]1CC[C@]2(O)C(=O)COC(=O)CCC(=O)O`, for which the inhibition was inactive: 1.61%.

As to `O=C(O)[C@H](Cc1ccccc1)NC(=O)N1CCC(Cc2ccccc2)CC1`, the inhibition was inactive: -7.5%.

`COc1ccc(CC(=O)NCC2(c3ccc(OC)c(OC)c3)CCOCC2)cc1`: the inhibition was inactive: -3.96%.

Consider `COc1cc(COc2ccc3c(C)c(Cc4ccccc4)c(=O)oc3c2)cc(OC)c1OC`, for which the inhibition was inactive: -0.647%.

For `CCOc1ccc2nc(NC(=O)NC3CCCCC3)sc2c1`, the inhibition was inactive: -0.863%.

For `CC(C)Cc1cc(C(=O)N2CCC(N3CCC(C(=O)N4CCCC4)CC3)CC2)n[nH]1`, the inhibition was inactive: -14.1%.

As for `Nc1nc(SCc2ccc([N+](=O)[O-])cc2)c2ncn(C3OC(CO)C(O)C3O)c2n1` (stereo not drawn), the inhibition is inactive: -11%.

Turning to `O=C(N1CCCCC1)C1(c2ccccc2)CCOCC1`, the inhibition is inactive: 2.83%.

Turning to `CCCC(=O)Nc1ncnc2c1ncn2[C@@H]1O[C@@H]2COP(=O)(O)O[C@H]2[C@H]1OC(=O)CCC`, the inhibition is inactive: -4.1%.

On to `Cc1ccc(CN2CCN(Cc3cn[nH]c3C3CCCCC3)CC2CCO)cc1` (stereo not drawn), for which the inhibition was inactive: 5.04%.

In the case of `CCc1cccc(OC2OC(CO)C(O)C(O)C2NC(C)=O)c1` (stereo not drawn), the inhibition was inactive: -3.23%.

Consider `C=CCc1cccc2cc(C(=O)Nc3ccc(CC(=O)O)cc3)c(=O)oc12`, for which the inhibition is inactive: -2.75%.

On to `CCCc1c(OCCCCc2nn[nH]n2)ccc(C(C)=O)c1O`, for which the inhibition is inactive: -4.88%.

Take `COc1cc(CNc2nnnn2C)ccc1OCc1ccc(F)cc1Cl`: the inhibition was inactive: 9.16%.

For `CCc1cc2c(C)cc(=O)oc2cc1OC(=O)C1CCCN1C(=O)OC(C)(C)C` (stereo not drawn), the inhibition is inactive: -5.17%.

For `O=C(COc1ccc2c(-c3ccccc3)cc(=O)oc2c1)NCc1cccs1`, the inhibition was inactive: -4.65%.

In the case of `O=c1cc(-c2ccccc2)oc2cc(OCc3ccccc3)cc(O)c12`, the inhibition was inactive: -13.9%.

With `C/C(=N\N=C1\NC(=O)C(CC(=O)Nc2ccc(Cl)cc2)S1)c1ccco1` (stereo not drawn), the inhibition is inactive: -15.6%.

For `CC(=O)Nc1ccc2[nH]c(C)c(CC=C(Cl)Cl)c(=O)c2c1`, the inhibition is inactive: 6.74%.

As to `CC(=O)OCC#CCSc1nc2ccccc2n1C`, the inhibition was inactive: -0.59%.

Regarding `CCCC(=O)O[C@]1(C(=O)COC(C)=O)CC[C@H]2[C@@H]3C[C@H](F)C4=CC(=O)C=C[C@]4(C)[C@@]3(F)[C@@H](O)C[C@@]21C`, the inhibition is inactive: 15.2%.

Regarding `O=C(NNC(=O)c1cccs1)c1ccco1`, the inhibition was inactive: 4%.

On to `O=C(O)c1ccccc1C(=O)OCCCCOC(=O)c1ccccc1C(=O)O`, for which the inhibition is inactive: -2.01%.

Consider `CCn1c(O)c(/C=C2\C=Nc3ccccc32)sc1=O`, for which the inhibition is inactive: 8.58%.

Turning to `Nc1ccc(S(=O)(=O)c2ccc(N)cc2)cc1`, the inhibition was inactive: 1.34%.

For `OCCN1CCN(CCCN2c3ccccc3Sc3ccc(Cl)cc32)CC1`, the inhibition was active: 73.4%.

Turning to `COC(=O)C1=C(C)N(C)C(=S)NC1c1ccc(Cl)cc1` (stereo not drawn), the inhibition is inactive: -2.19%.

Regarding `O=C(c1cccnc1)N1N=C(C2CC2)CC1(O)C(F)(F)F` (stereo not drawn), the inhibition was inactive: -9.45%.

In the case of `COCc1cc(=O)[nH]c(Nc2nc3ccccc3o2)n1`, the inhibition was inactive: 6.12%.

Regarding `COC(=O)c1ccc(C(=O)OC)c(NC(=O)C(C)C)c1`, the inhibition is inactive: -2.12%.

As to `O=c1oc2c(CN3CCCCC3)c(O)ccc2c2c1CCCCC2`, the inhibition was inactive: -17.5%.

As for `CC(=O)[C@@H]1[C@@H](C(=O)c2ccc(C)cc2)[C@]2(C(=O)Nc3ccccc32)[C@H]2C=Cc3cc(F)ccc3N12`, the inhibition was inactive: -108%.

In the case of `CC1CCCc2sc3ncn(N)c(=N)c3c21` (stereo not drawn), the inhibition is inactive: -2.35%.

`COc1ccc2c(c1O)Cc1ccccc1C2=O`: the inhibition was inactive: -3.51%.

In the case of `COc1cc2nc(N3CCN(C(=O)c4ccco4)CC3)nc(N)c2cc1OC`, the inhibition is inactive: 43.3%.

As to `CCc1cc2c(=O)c(-c3nc4ccccc4n3C)coc2c(CN2CCN(C)CC2)c1O`, the inhibition was inactive: -1.25%.

For the compound `COc1ccc(OC)c(-n2c(Cn3c(-c4ccccn4)nc4ccccc43)n[nH]c2=S)c1`, the inhibition was inactive: -4.09%.

For the compound `CC(=O)Oc1ccc(C2OC(=O)c3ccccc3N2C(C)=O)cc1` (stereo not drawn), the inhibition is inactive: 1.33%.

On to `CC(=O)N1CC23C=CC(CC2CC12CCCCCC2)O3` (stereo not drawn), for which the inhibition was inactive: 2.84%.
